# In PubChem BioAssay AID624418 (National Center for Advancing Translational Sciences (NCATS), 2012):
# Hit rate of the full screen: of about 410,000 compounds, about 530 (0.13%) were called active. All entries are inconclusive by the source's own rule. Clear calls are listed elsewhere. Calls come from the whole dose curve; as a rule, active = well fitted inhibition curve with a large enough effect; inconclusive = small, poorly fitted or top-dose-only effect, or another doubt; inactive = no such curve, though single readings can be large or run the other way.
# Assay: qHTS of GLP-1 Receptor Inverse Agonists: Cytotox Screen;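 note: loss of luciferase light is scored as toxicity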
# Conditions: HEK293 cAMP-luciferase reporter cells, luminescence, 24 h
# From the text: The overall goal of this project was to develop a novel assay for discovering small molecule ligands for class B1 G protein-coupled receptors (GPCRs). Very few agonists (or inverse agonists) with generally weak activity for this entire group of physiologically important receptors are known to date. To establish proof-of-principle that this critical bottleneck can be overcome with a suitable screening approach, our studies focused on the class B1 receptor for glucagon-like peptide-1 (GLP-1R), a potential therapeutic target for diabetes and neurodegenerative disease.
# The assay was developed using a cell-based functional readout. Toward this goal, stably transfected HEK293 cell clones were established that co-express (i) a cAMP-responsive luciferase reporter gene, and (ii) constitutively active GLP-1R that upon ligand interaction inhibit (inverse agonists) the luciferase activity. In addition, two control cell lines were developed: (i) one that express only the cAMP-responsive reporter gene to enable initial exclusion of GLP-1R independent effects of candidate probes; and (ii) one with the reported gene cloned with another constitutively active orphan receptor GPR119 to enable exclusion of GLP-1R independent inhibitor effects of candidate inverse agonists.
# To that end, this assay was optimized for 1536-well format and screened against the MLSMR. Then the same collection was run in this cytotoxicity assay where inhibition was the undesired outcome.
# NIH Molecular Libraries Probe Production Network [MLPCN]
# NIH Chemical Genomics Center [NCGC]
# PI Name: Martin Beinborn, Tufts Medical Center
# Six ul of cell suspension (200 cells/uL in DMEM + 10% Nu serum + 1% pen-strep) is dispensed in a white solid 1536-well plate. The plates are incubated for 12 hours at 37 deg C at 5% CO2 followed by addition of 23 nL compounds. After 24 hr incubation at 37 deg C and 5% CO2, 3 uL of luciferase assay detection reagent is added. A luminescence read is obtained on the PerkinElmer Viewlux after 12 min incubation at room temperature.
# Potency is the fitted concentration of half-maximal effect.
row,SMILES,Potency
1,CC(C)(C)c1ccc(OP(C)(=O)Nc2ccc(SC(F)(F)F)cc2)cc1 (centres undefined),inconclusive: 25.1 µM
2,O=[N+]([O-])c1ccc2c(c1)C=Nc1ccccc1O2,inconclusive: 15.8 µM
3,O=[N+]([O-])c1cc([N+](=O)[O-])c(O)c([N+](=O)[O-])c1.c1ccc(Oc2ccncc2)cc1,inconclusive: 10 µM
4,Cc1nc2ccc3ccccc3c2s1.O=[N+]([O-])c1cc([N+](=O)[O-])c(O)c([N+](=O)[O-])c1,inconclusive: 8.91 µM
5,O=[N+]([O-])c1cc([N+](=O)[O-])c(-n2nnc3ccccc32)c([N+](=O)[O-])c1,inconclusive: 15.8 µM
6,O=[N+]([O-])c1cc([N+](=O)[O-])c(Nc2nnnn2CCO)c([N+](=O)[O-])c1,inconclusive: 10 µM
7,CCOC(=O)c1ccc(NP(C)(=O)Oc2cc(C)cc(C)c2)cc1 (centres undefined),inconclusive: 28.2 µM
8,CCCCCOc1ccc(NP(C)(=O)Oc2ccc(Cl)cc2Cl)cc1 (centres undefined),inconclusive: 28.2 µM
9,Cc1cc(-c2cccc3ccccc23)c(C)cn1.O=[N+]([O-])c1cc([N+](=O)[O-])c(O)c([N+](=O)[O-])c1,inconclusive: 12.6 µM
